Measured values from paper PMC9162485.
Results are given in words; binding and its absence hold for the method and conditions named. In cells and extracts the contact can be indirect. Some results given as binding are weak or reduced against the parent protein; the word gives no strength.

Molecular target: p62 (exogenous, tag not printed for the experiment) (UniProt Q13501)
Experiment: co-IP

For “SARS-CoV-2 NSP5 (main protease) (from UniProt P0DTD1 3264-3569) (enzyme)”, the binding was “binds”.
